Measurements reported in PubChem BioAssay AID743121 (NCATS, 2013)
Purpose: 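Partners whose loss is lethal together with topoisomerase I blockade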 (primary screen). Cells: MDA-MB-231 cells, a human breast cancer line. Reagents: single siRNA against human genes, 20 nM siRNA (0.8 pmol per well). Timing: 120 h (drug added 48 h after transfection, read 72 h later). Conditions: camptothecin 20 nM (about EC30) for 72 h; vehicle 0.1% DMSO in parallel plates. Detection: 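Cell viability by ATP luminescence (CellTiter-Glo) as % of non-targeting siRNA wells, and the log2 ratio of viability without drug over viability with camptothecin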. Reading the numbers: log2 vehicle/camptothecin viability: higher = stronger sensitisation to camptothecin. Call rule: 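Each gene scored by redundant siRNA activity (RSA) over its individual siRNA ratios; a gene is called active at p < 0.001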.
This is an unselected part of about 26,000 reagents. Over the whole deposit, 167 (0.63%) were called active. 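Calls are per gene from RSA p-values that are not deposited; an individual active-marked siRNA can sensitise only weakly.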 A number with no mark means an inactive call. Reagents against one gene are numbered here. Not all columns of the deposit are shown. Reagent sequences are not shown.

log2 vehicle/camptothecin viability, by target and reagent
PPP1R15B (protein phosphatase 1 regulatory subunit 15B): #1 -0.298; #2 0.181; #3 0.0384; #4 -0.0677
ADAMTS7 (ADAM metallopeptidase with thrombospondin type 1 motif 7): #1 0.157; #2 -0.345; #3 -0.408
BCL10 (BCL10 immune signaling adaptor): #1 -0.301; #2 -0.0712; #3 -0.142; #4 -0.35
PRKAR2A: #1 -0.281; #2 -0.263; #3 -0.407; #4 -0.0954
MOS (MOS proto-oncogene, serine/threonine kinase): #1 0.769; #2 -0.105; #3 -0.297; #4 0.321
MLX (MAX dimerization protein MLX): #1 0.148; #2 -0.303; #3 -0.129; #4 -0.432

No new results follow: entries from further up.
log2 vehicle/camptothecin viability, by target and reagent
ADAMTS7 (ADAM metallopeptidase with thrombospondin type 1 motif 7): #2 -0.345; #3 -0.408
BCL10 (BCL10 immune signaling adaptor): #1 -0.301; #2 -0.0712; #3 -0.142

The listing continues:
log2 vehicle/camptothecin viability, by target and reagent
PPM1E (protein phosphatase, Mg2+/Mn2+ dependent 1E): #1 0.14; #2 -0.138; #3 -0.425; #4 0.485
CRYGB (crystallin gamma B): #1 -0.0802; #2 -0.0667; #3 -0.143; #4 -0.00281
TUBB2A (tubulin beta 2A class IIa): #1 -0.0164; #2 -0.0253; #3 0.317; #4 0.0889
PDIK1L (PDLIM1 interacting kinase 1 like): #1 -0.312; #2 -0.219; #3 -0.102; #4 -0.0379
ALK (ALK receptor tyrosine kinase): #1 -0.451; #2 -0.0341; #3 -0.737; #4 -0.459
NR1H3 (nuclear receptor subfamily 1 group H member 3): #1 -0.161; #2 -0.533; #3 -0.451; #4 -0.252
GP6 (glycoprotein VI platelet): #1 -0.199; #2 0.0367; #3 -0.191; #4 0.231
PA2G4 (proliferation-associated 2G4): #1 -0.528; #2 0.191; #3 -0.245
RTP1 (receptor transporter protein 1): #1 -0.0778; #2 -0.521; #3 -0.101
ADORA1 (adenosine A1 receptor): #1 -0.354; #2 0.936; #3 -0.0257; #4 -0.338
CHMP1A (charged multivesicular body protein 1A): #1 0.277; #2 0.0435; #3 0.154; #4 -0.332; #5 -0.333; #6 0.118; #7 -0.207; #8 -0.366
